The supplement of paper PMC4604168 (melanoma cell lines)
The list shows a part of the results. Many values rest on one well or one pass, so single values are uncertain.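 The apoptosis fraction was the count of cleaved-PARP antibody-stained nuclei relative to all DNA-stained nuclei, imaged in 1,536-well plates. Screening doses were set so most cells survived, and baseline and induced cleaved-PARP levels vary greatly across cell lines.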

Assays:
Experiment in all cases: cleaved PARP positive nuclei fraction relative to DMSO control; melanoma cells; higher = more apoptosis
Settings in all cases: library dose: low library concentration; 72 h
[1] = tested on: MZ2-MEL
[2] = tested on: MeWo
[3] = tested on: RPMI7951
[4] = tested on: RVH-421
[5] = tested on: SkMel28
[6] = tested on: SkMel2
[7] = tested on: SkMel30
[8] = tested on: SkMel5
[9] = tested on: UACC257
[10] = tested on: UACC62
[11] = tested on: WM115
[12] = tested on: WM1716
[13] = tested on: WM1745
[14] = tested on: WM3526
[15] = tested on: WM3619
[16] = tested on: WM451Lu

Row | SMILES | cleaved PARP positive nuclei fraction [1] [%] | cleaved PARP positive nuclei fraction [2] [%] | cleaved PARP positive nuclei fraction [3] [%] | cleaved PARP positive nuclei fraction [4] [%] | cleaved PARP positive nuclei fraction [5] [%] | cleaved PARP positive nuclei fraction [6] [%] | cleaved PARP positive nuclei fraction [7] [%] | cleaved PARP positive nuclei fraction [8] [%] | cleaved PARP positive nuclei fraction [9] [%] | cleaved PARP positive nuclei fraction [10] [%] | cleaved PARP positive nuclei fraction [11] [%] | cleaved PARP positive nuclei fraction [12] [%] | cleaved PARP positive nuclei fraction [13] [%] | cleaved PARP positive nuclei fraction [14] [%] | cleaved PARP positive nuclei fraction [15] [%] | cleaved PARP positive nuclei fraction [16] [%]
1 | Cn1c(Nc2ccc(C(F)(F)F)cc2)nc2cc(Oc3ccnc(-c4ncc(C(F)(F)F)[nH]4)c3)ccc21 + Cn1cncc1[C@@](N)(c1ccc(Cl)cc1)c1ccc2c(c1)c(-c1cccc(Cl)c1)cc(=O)n2C [tipifarnib] (first compound 0.08 µM, partner dose 0.01 µM) | 74.6 | 86 | 689 | 77.3 | 88.3 | 229 | 116 | 172 | 324 | 101 | 362 | 207 | 109 | 370 | 173 | 128
2 | O=C(CCCCCCC(=O)Nc1ccccc1)NO [vorinostat] + NCC(=O)Nc1ccc(-n2nc(C(F)(F)F)cc2-c2ccc3c(ccc4ccccc43)c2)cc1 [OSU03012] (first compound 0.08 µM, partner dose 1 µM) | 71.6 | 298 | 91.8 | 83.1 | 64.4 | 326 | 121 | 75.8 | 159 | 189 | 203 | 106 | 86.9 | 257 | 155 | 80.1
3 | C=CCNC1=C2C[C@@H](C)C[C@H](OC)[C@H](O)[C@@H](C)/C=C(\C)[C@H](OC(N)=O)[C@@H](OC)/C=C\C=C(/C)C(=O)NC(=CC1=O)C2=O [Tanespimycin] + CN(NC(=O)CC(=O)NN(C)C(=S)c1ccccc1)C(=S)c1ccccc1 [STA4783] (first compound 0.002 µM, partner dose 0.006 µM) | 88.6 | 173 | 122 | 89.1 | 232 | 37.3 | 62.6 | 375 | 192 | 148 | 302 | 285 | 168 | 36.3 | 145 | 162
4 | CC1(C)NC(=O)N(c2ccc([N+](=O)[O-])c(C(F)(F)F)c2)C1=O [nilutamide] + NC(=O)Nc1cc(-c2cccc(F)c2)sc1C(=O)N[C@H]1CCCNC1 [AZD7762] (first compound 1 µM, partner dose 0.02 µM) | 77.7 | 51 | 143 | 48.9 | 44.1 | 46.1 | 55.8 | 39.4 | 67.3 | 62.2 | 84.4 | 42.7 | 80 | 103 | 123 | 179
5 | C#Cc1cccc(Nc2ncnc3cc(OCCOC)c(OCCOC)cc23)c1 [erlotinib] + O=C(CCCCCCC(=O)Nc1ccccc1)NO [vorinostat] (first compound 0.8 µM, partner dose 0.08 µM) | 86 | 34.7 | 129 | 202 | 244 | 200 | 34.8 | 101 | 256 | 216 | 88.2 | 103 | 114 | 79 | 120 | 111
6 | Cc1cc(N2CCOCC2)cc2[nH]c(-c3c(NC[C@@H](O)c4cccc(Cl)c4)cc[nH]c3=O)nc12 + O=C(Nc1cccc(Cl)c1)Nc1ncc(CCNc2ncnc3ccsc23)s1 [SNS314] (first compound 0.2 µM, partner dose 0.0008 µM) | 122 | 118 | 140 | 39.5 | 43.1 | 94.8 | 71.4 | 37.6 | 122 | 87.8 | 392 | 93.6 | 135 | 83.2 | 92.9 | 87.9
7 | NC(=O)Nc1cc(-c2cccc(F)c2)sc1C(=O)N[C@H]1CCCNC1 + NCC(=O)Nc1ccc(-n2nc(C(F)(F)F)cc2-c2ccc3c(ccc4ccccc43)c2)cc1 [OSU03012] (first compound 0.02 µM, partner dose 1 µM) | 67.5 | 360 | 168 | 71.5 | 148 | 366 | 134 | 69.3 | 112 | 131 | 95.7 | 201 | 82 | 131 | 120 | 132
8 | Cc1nc(Nc2ncc(C(=O)Nc3c(C)cccc3Cl)s2)cc(N2CCN(CCO)CC2)n1 [dasatanib] + Cc1cc(N2CCOCC2)cc2[nH]c(-c3c(NC[C@@H](O)c4cccc(Cl)c4)cc[nH]c3=O)nc12 [BMS536924] (first compound 0.004 µM, partner dose 0.2 µM) | 346 | 124 | 88.7 | 105 | 80.1 | 74.6 | 78.1 | 63.2 | 228 | 306 | 195 | 453 | 230 | 29.4 | 115 | 89.3
9 | Cn1c(Nc2ccc(C(F)(F)F)cc2)nc2cc(Oc3ccnc(-c4ncc(C(F)(F)F)[nH]4)c3)ccc21 + CN(NC(=O)CC(=O)NN(C)C(=S)c1ccccc1)C(=S)c1ccccc1 [STA4783] (first compound 0.08 µM, partner dose 0.006 µM) | 114 | 251 | 160 | 82.4 | 97.7 | 161 | 122 | 52.3 | 597 | 216 | 646 | 301 | 140 | 53.3 | 129 | 167
10 | Clc1ccc(Nc2nnc(Cc3ccncc3)c3ccccc23)cc1 [vatalanib] + Cc1cc([N+](=O)[O-])ccc1NS(=O)(=O)c1cc(Cl)ccc1Cl [FH535] (first compound 2 µM, partner dose 1 µM) | 43.2 | 58.9 | 91.8 | 252 | 149 | 13.7 | 30 | 106 | 159 | 75.6 | 158 | 70.6 | 108 | 87 | 180 | 153
11 | Nc1cccc2c1CN(C1CCC(=O)NC1=O)C2=O (centres undefined) [lenalidomide] + NCC(=O)Nc1ccc(-n2nc(C(F)(F)F)cc2-c2ccc3c(ccc4ccccc43)c2)cc1 [OSU03012] (first compound 1 µM, partner dose 1 µM) | 159 | 177 | 46 | 128 | 145 | 164 | 130 | 147 | 96.1 | 157 | 49.8 | 46.1 | 105 | 119 | 84.7 | 376
12 | CC(C)(C)c1cnc(CSc2cnc(NC(=O)C3CCNCC3)s2)o1 + NCC(=O)Nc1ccc(-n2nc(C(F)(F)F)cc2-c2ccc3c(ccc4ccccc43)c2)cc1 [OSU03012] (first compound 0.01 µM, partner dose 1 µM) | 140 | 239 | 49.3 | 74.4 | 35.1 | 150 | 103 | 81.5 | 81.7 | 99.9 | 76.1 | 83.8 | 107 | 86.1 | 106 | 187
13 | C=CCNC1=C2C[C@@H](C)C[C@H](OC)[C@H](O)[C@@H](C)/C=C(\C)[C@H](OC(N)=O)[C@@H](OC)/C=C\C=C(/C)C(=O)NC(=CC1=O)C2=O [Tanespimycin] + O=C(CCCCCCC(=O)Nc1ccccc1)NO [vorinostat] (first compound 0.002 µM, partner dose 0.08 µM) | 158 | 143 | 127 | 120 | 211 | 83.5 | 212 | 125 | 107 | 27.2 | 97.9 | 56.6 | 114 | 43.2 | 225 | 120
14 | OCc1c[nH]c2ccccc12 [Indole-3-carbinol] + COc1ccc2c(c1)CCC1C2CCC2(C)C(NCCCCCCN3C(=O)C=CC3=O)CCC12 [U73122] (first compound 0.8 µM, partner dose 0.4 µM) | 135 | 120 | 89.9 | 157 | 60.1 | 74.9 | 276 | 78.7 | 69.8 | 124 | 120 | 101 | 81.9 | 71.6 | 86.3 | 36.7
15 | Clc1ccc(Nc2nnc(Cc3ccncc3)c3ccccc23)cc1 [vatalanib] + O=C1NC(=O)/C(=C/c2ccc(-c3ccc(F)cc3O)o2)S1 [AS252424] (first compound 2 µM, partner dose 1 µM) | 130 | 78.8 | 90.9 | 120 | 147 | 96.1 | 62.6 | 66.5 | 48.8 | 36.8 | 159 | 36.8 | 117 | 70.9 | 103 | 61.8
16 | OCc1c[nH]c2ccccc12 [Indole-3-carbinol] + CCN(CC)CCCCNc1ncc2cc(-c3cc(OC)cc(OC)c3)c(NC(=O)NC(C)(C)C)nc2n1 [PD173074] (first compound 0.8 µM, partner dose 0.1 µM) | 76.4 | 120 | 64.8 | 124 | 96.5 | 88.3 | 83 | 228 | 45.9 | 172 | 311 | 120 | 182 | 77.9 | 84.9 | 146
17 | O=C(CCCCCCC(=O)Nc1ccccc1)NO [vorinostat] + c1cc(-c2cnn3cc(-c4ccc(OCCN5CCCCC5)cc4)cnc23)ccn1 [Dorsomorphin] (first compound 0.08 µM, partner dose 0.4 µM) | 120 | 57.6 | 93.8 | 69.7 | 120 |  | 73.8 | 104 | 140 | 82.7 | 103 | 109 | 97.1 | 81.4 | 91.2 | 135
18 | OCc1c[nH]c2ccccc12 [Indole-3-carbinol] + C[C@]1(c2nc3c(C(N)=O)cccc3[nH]2)CCCN1 [Veliparib] (first compound 0.8 µM, partner dose 1.4 µM) | 134 | 56.5 | 74.3 | 76.7 | 39.7 | 95.4 | 88.3 |  |  | 74.5 | 136 | 131 | 109 | 46.1 | 122 | 63.1
19 | Clc1ccc(Nc2nnc(Cc3ccncc3)c3ccccc23)cc1 [vatalanib] + C[C@]1(c2nc3c(C(N)=O)cccc3[nH]2)CCCN1 [Veliparib] (first compound 2 µM, partner dose 1.4 µM) | 72.9 | 41.7 | 53.4 | 117 | 83.9 | 99.5 | 32.5 |  |  | 57.3 | 146 | 289 | 95.8 | 89.2 | 120 | 233

Reformatted in markdown: part of the list above

| Row | SMILES | cleaved PARP positive nuclei fraction [1] [%] | cleaved PARP positive nuclei fraction [2] [%] | cleaved PARP positive nuclei fraction [3] [%] | cleaved PARP positive nuclei fraction [4] [%] | cleaved PARP positive nuclei fraction [5] [%] | cleaved PARP positive nuclei fraction [6] [%] | cleaved PARP positive nuclei fraction [7] [%] | cleaved PARP positive nuclei fraction [8] [%] | cleaved PARP positive nuclei fraction [9] [%] | cleaved PARP positive nuclei fraction [10] [%] | cleaved PARP positive nuclei fraction [11] [%] | cleaved PARP positive nuclei fraction [12] [%] | cleaved PARP positive nuclei fraction [13] [%] | cleaved PARP positive nuclei fraction [14] [%] | cleaved PARP positive nuclei fraction [15] [%] | cleaved PARP positive nuclei fraction [16] [%] |
| --- | --- | --- | --- | --- | --- | --- | --- | --- | --- | --- | --- | --- | --- | --- | --- | --- | --- |
| 13 | C=CCNC1=C2C[C@@H](C)C[C@H](OC)[C@H](O)[C@@H](C)/C=C(\C)[C@H](OC(N)=O)[C@@H](OC)/C=C\C=C(/C)C(=O)NC(=CC1=O)C2=O [Tanespimycin] + O=C(CCCCCCC(=O)Nc1ccccc1)NO [vorinostat] (first compound 0.002 µM, partner dose 0.08 µM) | 158 | 143 | 127 | 120 | 211 | 83.5 | 212 | 125 | 107 | 27.2 | 97.9 | 56.6 | 114 | 43.2 | 225 | 120 |
| 14 | OCc1c[nH]c2ccccc12 [Indole-3-carbinol] + COc1ccc2c(c1)CCC1C2CCC2(C)C(NCCCCCCN3C(=O)C=CC3=O)CCC12 [U73122] (first compound 0.8 µM, partner dose 0.4 µM) | 135 | 120 | 89.9 | 157 | 60.1 | 74.9 | 276 | 78.7 | 69.8 | 124 | 120 | 101 | 81.9 | 71.6 | 86.3 | 36.7 |
| 15 | Clc1ccc(Nc2nnc(Cc3ccncc3)c3ccccc23)cc1 [vatalanib] + O=C1NC(=O)/C(=C/c2ccc(-c3ccc(F)cc3O)o2)S1 [AS252424] (first compound 2 µM, partner dose 1 µM) | 130 | 78.8 | 90.9 | 120 | 147 | 96.1 | 62.6 | 66.5 | 48.8 | 36.8 | 159 | 36.8 | 117 | 70.9 | 103 | 61.8 |
| 16 | OCc1c[nH]c2ccccc12 [Indole-3-carbinol] + CCN(CC)CCCCNc1ncc2cc(-c3cc(OC)cc(OC)c3)c(NC(=O)NC(C)(C)C)nc2n1 [PD173074] (first compound 0.8 µM, partner dose 0.1 µM) | 76.4 | 120 | 64.8 | 124 | 96.5 | 88.3 | 83 | 228 | 45.9 | 172 | 311 | 120 | 182 | 77.9 | 84.9 | 146 |
| 17 | O=C(CCCCCCC(=O)Nc1ccccc1)NO [vorinostat] + c1cc(-c2cnn3cc(-c4ccc(OCCN5CCCCC5)cc4)cnc23)ccn1 [Dorsomorphin] (first compound 0.08 µM, partner dose 0.4 µM) | 120 | 57.6 | 93.8 | 69.7 | 120 |  | 73.8 | 104 | 140 | 82.7 | 103 | 109 | 97.1 | 81.4 | 91.2 | 135 |
